This is an account of results in PubChem BioAssay AID1487 (National Center for Advancing Translational Sciences (NCATS), 2009).

A short description of the assay: qHTS Assay for Modulators of Lamin A Splicing. The following applies: HeLa LMNA splicing GFP/RFP minigene ratio, 48 h. A digest of the protocol:
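S3 HeLa cells stably expressing lamin A-EGFP splicing minigene plus DsRed2, 600 cells/well, 48 h compound exposure at 37C. Laser-scanning cytometry; analysed as GFP (500-530 nm)/RFP (575-640 nm) total intensity ratio; 0.5% DMSO vehicle.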

Where [1] appears, read: measured here: RFP viability control channel.
Setting [2] is: measured here: GFP splicing reporter channel.

The other results are listed elsewhere or left out. These are further read-outs of the screen, such as a control signal, another cell line or another target. No call is given for them. Compounds called inactive in the main read-out are mostly missing here. Words in brackets tell the shape of the fitted curve; partial curves, single points and poor fits give uncertain potencies.

Consider `Cc1cccc(-n2c(N)cc(=O)nc2SC(C)C(=O)NC2CCCCC2)c1` (centres undefined), for which the AC50 under setting [1] was 12.6 µM [rising, single point]. For the compound `CCOC(=O)c1c(-c2ccccc2)csc1NC(=O)c1cccc(N2C(=O)CCC2=O)c1`, the AC50 runs as follows: under setting [2], 35.5 µM [falling, single point]; under setting [1], 35.5 µM [falling, single point]. As to `CO/N=C/c1ccc(Sc2ccccc2)c([N+](=O)[O-])c1`, the half-maximal activity concentration (AC50) under setting [2] is 0.02 µM [rising, full curve, poor fit]. With `O=C(CSc1nc2c([nH]c3ccccc32)c(=O)n1-c1ccc(Cl)cc1)NC1CCCCC1`, the AC50 under setting [2] is 15.8 µM [falling, partial curve] and the AC50 under setting [1] was 15.8 µM [falling, partial curve]. For `CCCCn1ccnc1C(=O)c1cccc(S(=O)(=O)N2c3ccccc3CC2C)c1` (centres undefined), under setting [1], the AC50 was 35.5 µM [rising, single point]. The same measure, in the same setting: for `O=C(c1ccc(CNS(=O)(=O)c2ccccc2)cc1)N1CCN(Cc2ccccc2)CC1` the value was 11.2 µM [rising, partial curve].

For `COc1ccccc1NC(=O)c1c(C)cc(C)nc1SCC(=O)Nc1ccc(C)cc1`, the AC50 under setting [2] is 35.5 µM [falling, partial curve, poor fit] and the AC50 under setting [1] was 0.000794 µM [falling, full curve, poor fit]. `O=C(Nc1cccc(Cl)c1)Nn1cnnc1`: the AC50 reads like this: under setting [2], 12.6 µM [falling, partial curve]; under setting [1], 10 µM [falling, partial curve]. As to `COc1ccc(NC(C#N)c2ccccc2OCc2ccccc2)cc1` (centres undefined), the AC50 under setting [1] was 35.5 µM [rising, single point]. The same measure, in the same setting: for `O=C(/C=C/c1cnc2ccccc2n1)NC12CC3CC(CC(C3)C1)C2` the value was 12.6 µM [rising, single point].

As to `Cc1cccc(N(C)C(=O)c2cc3cc4ccc(C)cc4nc3o2)c1`, the AC50 under setting [1] is 6.31 µM [rising, full curve]. Same read-out and setting: for `COc1cccc(NC(=O)N2CCN(c3cccc(C)c3C)CC2)c1` the value was 12.6 µM [rising, single point]; for `O=C(CC(c1ccccc1)c1ccco1)Nc1nccs1` (centres undefined), 14.1 µM [rising, single point]; for `O=C(CN1CCN(c2ccccn2)CC1)N(c1ccccc1)c1ccc2ccccc2c1`, 14.1 µM [rising, partial curve]. Same read-out and setting: for `COc1ccc(-c2n[nH]c(C)c2-c2cnn(-c3ccccc3)c2)c(O)c1C` the value was 0.316 µM [rising, partial curve, poor fit].

For the compound `Oc1ccc(NCc2ccccc2OCc2ccccc2)cc1`, the AC50 is 14.1 µM [rising, partial curve, poor fit] under setting [2] and 35.5 µM [rising, single point] under setting [1]. Turning to `CC1CCN(S(=O)(=O)c2cc(C(=O)N3CCN(c4ncccn4)CC3)ccc2Br)CC1`, the AC50 is, setting by setting: under setting [2], 11.2 µM [rising, partial curve]; under setting [1], 12.6 µM [rising, partial curve]. Take `CCOc1cc(C(=O)N/N=C/c2ccsc2)cc(OCC)c1OCC`: the AC50 under setting [1] was 31.6 µM [rising, single point]. Same read-out and setting: for `COCCN(CC(=O)Nc1ccc(F)cc1)S(=O)(=O)c1ccc(S(=O)(=O)N2CCCC2)cc1` the value was 5.62 µM [falling, single point]. `CCOc1ccc(CNC(=O)c2cc3cc(S(=O)(=O)N4CCCCC4)ccc3n2C)cc1`: the AC50 under setting [2] is 0.794 µM [rising, full curve, poor fit]. Regarding `Cc1ccc(Nc2cc(C)nc(NCc3ccccc3)n2)cc1`, the AC50 by setting is: under setting [2], 7.08 µM [rising, partial curve]; under setting [1], 11.2 µM [rising, partial curve]. On to `CS(=O)(=O)NCCSCc1c(F)cccc1Cl`, for which, under setting [1], the AC50 was 22.4 µM [rising, single point]. On to `Cc1nn(-c2ccccc2)c2sc(C(=O)c3c(N)n(C)c(=O)n(C)c3=O)cc12`, for which the AC50 is, setting by setting: under setting [2], 0.708 µM [rising, full curve, poor fit]; under setting [1], 20 µM [rising, single point]. As to `COc1ccc(C(=O)N2c3ccccc3C=CC2C#N)cc1` (centres undefined), the AC50 under setting [1] is 5.62 µM [rising, partial curve, poor fit].

Regarding `Cc1cnc(NC(=O)CSc2ncc(-c3ccccc3)n2Cc2ccco2)s1`, under setting [1], the AC50 is 35.5 µM [rising, single point]. For `CCN1CCc2c(OCC(=O)N3N=C(c4cccs4)CC3c3ccc(F)cc3)cccc2C1=O` (centres undefined), the AC50 under setting [1] was 2.82 µM [rising, partial curve, poor fit]. On the same count and under the same terms, for `COc1ccc(-c2cc(C3CCN(c4cc(Cl)nc(N)n4)CC3)[nH]n2)cc1` the value was 11.2 µM [falling, partial curve].

On to `O=C(c1ccco1)c1coc2c1cc(O)c1ccccc12`, for which the AC50 under setting [2] is 8.91 µM [falling, partial curve, poor fit]. For the compound `CCOC(=O)c1c(C)[nH]c(C)c1S(=O)(=O)N1CCCC(C(=O)N2CCN(c3cccc(Cl)c3)CC2)C1` (centres undefined), the concentration at half-maximal activity (AC50) runs as follows: under setting [2], 0.562 µM [falling, full curve]; under setting [1], 0.501 µM [falling, full curve]. On to `COc1ccc(NC(=O)c2ccc(Cc3ccc(C)cc3)o2)cc1`, for which the AC50 under setting [1] is 15.8 µM [rising, partial curve].

As to `O=C(NCc1ccccc1Cl)c1ccc2c(c1)NC(=O)C(CS(=O)(=O)Cc1ccc(Cl)cc1)N2` (centres undefined), the AC50 under setting [1] was 1.58 µM [falling, partial curve]. On the same count and under the same terms, for `Cc1cccc(C)c1NC(=O)CCCSc1nnc(-c2ccc(Cl)cc2)n1-c1ccccc1` the value was 5.01 µM [rising, full curve, poor fit].

As for `O=c1cc(-c2ccccc2)nc(N2CCN(Cc3ccccc3)CC2)[nH]1`, the concentration at half-maximal activity (AC50) under setting [1] is 22.4 µM [rising, single point]. Still for that read-out and setting: for `O=C(NNC(=S)Nc1cccc(Cl)c1)c1ccccc1OC(F)F` the value was 12.6 µM [rising, partial curve]; for `CCOC(=O)C1=C(SCC)c2cc3c(n2C1=O)CCCC3`, 35.5 µM [rising, single point]. In the case of `CCCCN(C)C(=O)CSc1nc(NCc2ccc(OC)cc2)c2ccccc2n1`, the half-maximal activity concentration (AC50) was 35.5 µM [rising, single point] under setting [2] and 35.5 µM [rising, single point] under setting [1]. Take `CCOC(=O)c1c(C)c(C(=O)Nc2ccc3c(c2)OCCO3)c(C)n1CC`: the AC50 under setting [1] is 35.5 µM [rising, single point]. Regarding `Cc1nc(-c2ccccc2)nc(Cl)c1Cl`, the half-maximal activity concentration (AC50) under setting [1] is 0.0355 µM [falling, full curve]. Turning to `CCCCNC(=S)N/N=C/c1cc(C)ccc1C`, the AC50 runs as follows: under setting [2], 15.8 µM [falling, partial curve, poor fit]; under setting [1], 10 µM [falling, partial curve, poor fit]. Take `CCN(CCO)CCCC(C)Nc1ccnc2cc(Cl)ccc12` (centres undefined): the AC50 under setting [2] was 35.5 µM [falling, single point] and the AC50 under setting [1] was 35.5 µM [falling, single point]. Take `CCOC(=O)c1ccc(NC(=O)Cn2cccc2)cc1`: under setting [2], the AC50 was 2 µM [rising, single point].

`Cc1nonc1CN(C)C(=O)c1ccc(OC2CCN(Cc3ccccn3)CC2)cc1`: the AC50 under setting [1] is 0.0501 µM [falling, single point]. In the case of `COc1cc(OC)cc(C(=O)Nc2nc3ccc(S(C)(=O)=O)cc3s2)c1`, the concentration at half-maximal activity (AC50) under setting [2] is 35.5 µM [falling, single point].

In the case of `Clc1ccccc1COc1ccccc1-c1nnco1`, the AC50 under setting [1] is 15.8 µM [rising, single point]. Consider `CC1CN(C(=O)N2CCC(C(=O)NCc3ccccc3F)CC2)c2cc(Cl)ccc2O1` (centres undefined), for which the AC50 was 0.562 µM [rising, full curve] under setting [2] and 1 µM [rising, full curve] under setting [1].

For `COc1ccc(/C=N/OCC(=O)N2CCCC2)c(OC)c1`, the AC50 under setting [2] is 0.0562 µM [falling, full curve, poor fit]. On the same count and under the same terms, for `CCCOc1ccc(C(=O)NNC(=S)NC(=O)c2cc(-c3ccccc3)nc3ccccc23)cc1` the value was 7.08 µM [rising, full curve, poor fit].

As for `CC(=O)Nc1ccc(/C(C)=N/Nc2nc(Nc3cccc4ccccc34)nc(N3CCOCC3)n2)cc1`, the AC50 under setting [1] was 10 µM [rising, partial curve]. Take `CC(C)CCN1CCN(Cc2ccsc2)CC1CCO` (centres undefined): the half-maximal activity concentration (AC50) is 0.891 µM [rising, full curve] under setting [2] and 0.0355 µM [rising, full curve] under setting [1].

`Oc1ccccc1-c1nc(NCC2CCCO2)c2ccccc2n1` (centres undefined): the half-maximal activity concentration (AC50) under setting [1] is 17.8 µM [rising, single point].

With `Cc1c(Cl)cccc1NC(=O)COC(=O)c1c2c(nc3ccccc13)CCN(Cc1ccccc1)C2`, under setting [1], the half-maximal activity concentration (AC50) was 10 µM [rising, partial curve].

As to `O=C(O)c1cccnc1Cl`, the AC50 under setting [1] is 0.112 µM [falling, full curve, poor fit]. Turning to `Nc1nc(CSC(=S)N2CCN(c3ccccc3)CC2)nc(Nc2ccccc2)n1`, the AC50 was 14.1 µM [rising, single point] under setting [2] and 31.6 µM [rising, single point] under setting [1]. For the compound `CCOC(=O)C1=C(C)NC(C)=C(C(=O)OCC)C1C1=COCCO1`, the AC50 under setting [1] was 0.282 µM [rising, full curve, poor fit]. On to `Cc1cc(S(=O)(=O)NC(C)C)ccc1OCC(=O)NCc1ccccc1`, for which, under setting [2], the AC50 is 3.55 µM [falling, partial curve]. Still for that read-out and setting: for `Cc1cc2c(OCC(O)CN3CCCC3)cccc2[nH]1` (centres undefined) the value was 0.00316 µM [rising, full curve].

For `CCc1ccccc1S(=O)(=O)Cc1ccc(C(=O)N2CCN(c3ccccc3OC)CC2)o1`, the concentration at half-maximal activity (AC50) under setting [1] was 11.2 µM [rising, partial curve].

In the case of `CC(C)NC(=O)N(O)C1N(Cc2ccc3c(c2)OCO3)C(=S)SC1(C)C` (centres undefined), the AC50 runs as follows: under setting [2], 35.5 µM [rising, single point]; under setting [1], 1.26 µM [falling, single point].
